PMC3262014
Results are given in words; binding and its absence hold for the method and conditions named. In cells and extracts the contact can be indirect. Some binding calls cover weakened binding; strength is not graded here.

The chains behind the UniProt entries cited, without tags or fusion partners.
UniProt P15682: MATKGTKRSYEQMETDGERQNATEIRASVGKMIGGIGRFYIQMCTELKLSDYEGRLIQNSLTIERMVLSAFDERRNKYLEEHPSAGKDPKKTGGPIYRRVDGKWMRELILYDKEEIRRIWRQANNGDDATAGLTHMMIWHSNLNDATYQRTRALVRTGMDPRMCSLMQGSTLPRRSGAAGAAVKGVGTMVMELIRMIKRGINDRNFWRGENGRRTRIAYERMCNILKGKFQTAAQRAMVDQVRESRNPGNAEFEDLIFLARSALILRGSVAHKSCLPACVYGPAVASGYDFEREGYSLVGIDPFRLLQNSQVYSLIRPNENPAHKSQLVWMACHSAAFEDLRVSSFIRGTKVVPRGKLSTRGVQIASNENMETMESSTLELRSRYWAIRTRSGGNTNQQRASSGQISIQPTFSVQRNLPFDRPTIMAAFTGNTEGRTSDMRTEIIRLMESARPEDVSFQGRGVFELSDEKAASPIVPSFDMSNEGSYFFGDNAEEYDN
UniProt O00505: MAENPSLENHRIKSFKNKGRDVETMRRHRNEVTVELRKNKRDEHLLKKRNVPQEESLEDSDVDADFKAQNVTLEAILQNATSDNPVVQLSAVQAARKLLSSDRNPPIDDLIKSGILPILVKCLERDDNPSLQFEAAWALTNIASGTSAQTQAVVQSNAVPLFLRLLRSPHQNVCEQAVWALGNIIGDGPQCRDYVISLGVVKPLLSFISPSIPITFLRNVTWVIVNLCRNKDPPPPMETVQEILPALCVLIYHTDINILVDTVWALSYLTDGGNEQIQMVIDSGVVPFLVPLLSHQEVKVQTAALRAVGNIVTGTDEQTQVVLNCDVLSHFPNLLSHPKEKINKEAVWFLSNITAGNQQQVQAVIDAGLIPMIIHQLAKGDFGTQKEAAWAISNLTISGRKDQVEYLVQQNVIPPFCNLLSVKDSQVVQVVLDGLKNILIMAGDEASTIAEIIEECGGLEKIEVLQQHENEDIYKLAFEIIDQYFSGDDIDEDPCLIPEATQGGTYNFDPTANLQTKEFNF
UniProt P52294: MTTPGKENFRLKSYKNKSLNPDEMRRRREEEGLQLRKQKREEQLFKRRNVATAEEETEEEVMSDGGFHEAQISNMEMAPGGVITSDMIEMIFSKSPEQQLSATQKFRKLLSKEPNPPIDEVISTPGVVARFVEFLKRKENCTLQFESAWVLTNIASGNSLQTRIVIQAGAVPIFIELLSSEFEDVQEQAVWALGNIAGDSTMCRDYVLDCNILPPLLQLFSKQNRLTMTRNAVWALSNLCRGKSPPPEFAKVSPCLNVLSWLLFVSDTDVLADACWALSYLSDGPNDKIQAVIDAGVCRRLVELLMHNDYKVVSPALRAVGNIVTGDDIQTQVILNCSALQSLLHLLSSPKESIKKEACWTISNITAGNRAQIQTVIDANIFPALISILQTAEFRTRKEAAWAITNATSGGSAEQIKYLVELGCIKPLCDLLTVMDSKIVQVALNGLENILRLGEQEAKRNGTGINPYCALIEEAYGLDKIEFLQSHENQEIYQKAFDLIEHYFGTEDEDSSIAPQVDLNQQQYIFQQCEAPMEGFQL
UniProt O00629: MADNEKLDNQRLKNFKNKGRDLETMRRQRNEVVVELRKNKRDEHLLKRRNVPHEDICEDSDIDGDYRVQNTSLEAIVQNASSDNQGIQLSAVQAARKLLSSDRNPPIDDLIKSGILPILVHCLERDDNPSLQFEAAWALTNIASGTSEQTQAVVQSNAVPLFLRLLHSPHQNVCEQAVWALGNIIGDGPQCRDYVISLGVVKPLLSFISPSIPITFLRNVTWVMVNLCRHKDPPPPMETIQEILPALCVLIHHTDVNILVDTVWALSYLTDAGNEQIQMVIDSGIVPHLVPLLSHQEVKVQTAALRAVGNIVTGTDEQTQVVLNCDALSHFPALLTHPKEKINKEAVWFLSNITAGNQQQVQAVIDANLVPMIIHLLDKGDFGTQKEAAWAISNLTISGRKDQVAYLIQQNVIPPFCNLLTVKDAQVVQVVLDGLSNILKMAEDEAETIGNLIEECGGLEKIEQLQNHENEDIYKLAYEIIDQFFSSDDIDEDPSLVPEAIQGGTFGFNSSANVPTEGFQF
UniProt Q14974: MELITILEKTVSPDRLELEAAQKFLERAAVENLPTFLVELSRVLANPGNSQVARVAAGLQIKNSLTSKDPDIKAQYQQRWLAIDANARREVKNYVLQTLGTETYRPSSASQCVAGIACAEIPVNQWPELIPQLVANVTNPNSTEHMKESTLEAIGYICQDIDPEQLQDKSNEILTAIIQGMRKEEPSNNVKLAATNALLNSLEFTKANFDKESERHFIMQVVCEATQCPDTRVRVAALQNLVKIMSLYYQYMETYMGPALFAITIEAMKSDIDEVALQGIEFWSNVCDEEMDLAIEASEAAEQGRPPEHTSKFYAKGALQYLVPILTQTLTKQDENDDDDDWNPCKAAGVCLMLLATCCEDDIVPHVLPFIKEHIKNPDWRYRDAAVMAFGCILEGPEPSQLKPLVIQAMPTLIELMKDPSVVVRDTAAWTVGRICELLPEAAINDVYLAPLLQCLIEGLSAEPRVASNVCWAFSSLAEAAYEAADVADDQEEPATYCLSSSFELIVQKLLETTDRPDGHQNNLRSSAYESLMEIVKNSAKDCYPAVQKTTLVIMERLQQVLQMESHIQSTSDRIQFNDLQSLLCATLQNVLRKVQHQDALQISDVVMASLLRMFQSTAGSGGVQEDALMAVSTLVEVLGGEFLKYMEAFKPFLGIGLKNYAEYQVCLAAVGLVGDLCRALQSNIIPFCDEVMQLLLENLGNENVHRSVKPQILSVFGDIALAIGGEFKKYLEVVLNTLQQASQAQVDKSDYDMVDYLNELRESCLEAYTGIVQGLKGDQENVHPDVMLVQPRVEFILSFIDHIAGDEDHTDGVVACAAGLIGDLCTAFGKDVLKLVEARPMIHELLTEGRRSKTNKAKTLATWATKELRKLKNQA

Tests used:
Assay in all cases: co-IP
[1] = biological target: WSN-NP-FLAG (influenza A virus A/WSN/33 (H1N1)) (UniProt P15682)
importin-α7-FLAG (human) = importin-α7-FLAG (human) (UniProt O60684)
importin-α4-FLAG (human) = importin-α4-FLAG (human) (UniProt O00505)
importin-α5-FLAG (human) = importin-α5-FLAG (human) (UniProt P52294)
importin-α3-FLAG (human) = importin-α3-FLAG (human) (UniProt O00629)

Q: “importin-α4 (endogenous) (from UniProt O00505 1-521)” was tested. Which binding [1] did it give?
A: binds

Q: For “importin-α5 (endogenous) (from UniProt P52294 1-538)”, which binding [1] is on record?
A: binds

Q: Which binding [1] does the source give for “importin-α3 (endogenous) (from UniProt O00629 1-521)” here?
A: binds

Q: What does the source list for “NP of recombinant A/WSN/33 virus in infected cells (from UniProt P15682 1-498)”?
A: binding (importin-α7-FLAG (human)): binds; binding (importin-α4-FLAG (human)): binds; binding (importin-α5-FLAG (human)): binds; binding (importin-α3-FLAG (human)): binds

Q: WSN-NP (from UniProt P15682 1-498) was tested. Which binding (importin-α7-FLAG (human)) did it give?
A: binds

Q: And the binding (importin-α4-FLAG (human))?
A: binds

Q: And the binding (importin-α5-FLAG (human))?
A: binds

Q: What about the binding (importin-α3-FLAG (human)) of the same substance?
A: binds

Q: For “importin-β1 (endogenous) (from UniProt Q14974 1-876)”, which binding (importin-α7-FLAG (human)) is on record?
A: binds

Q: What about the binding [1] of the same substance?
A: binds

Q: And the binding (importin-α4-FLAG (human))?
A: binds

Q: What about the binding (importin-α5-FLAG (human)) of the same substance?
A: binds

Q: And the binding (importin-α3-FLAG (human))?
A: binds

Q: “importin-α7 (endogenous) (from UniProt O60684 1-536)” was tested. Which binding [1] did it give?
A: binds
